Some entries share one result that the patent states for a list of compounds.
Target: T1, Human Ca2+ receptor (Homo sapiens, UniProt P41180)
T1 construct: expressed in transfected cells
T1 sequence (P41180 20-1078): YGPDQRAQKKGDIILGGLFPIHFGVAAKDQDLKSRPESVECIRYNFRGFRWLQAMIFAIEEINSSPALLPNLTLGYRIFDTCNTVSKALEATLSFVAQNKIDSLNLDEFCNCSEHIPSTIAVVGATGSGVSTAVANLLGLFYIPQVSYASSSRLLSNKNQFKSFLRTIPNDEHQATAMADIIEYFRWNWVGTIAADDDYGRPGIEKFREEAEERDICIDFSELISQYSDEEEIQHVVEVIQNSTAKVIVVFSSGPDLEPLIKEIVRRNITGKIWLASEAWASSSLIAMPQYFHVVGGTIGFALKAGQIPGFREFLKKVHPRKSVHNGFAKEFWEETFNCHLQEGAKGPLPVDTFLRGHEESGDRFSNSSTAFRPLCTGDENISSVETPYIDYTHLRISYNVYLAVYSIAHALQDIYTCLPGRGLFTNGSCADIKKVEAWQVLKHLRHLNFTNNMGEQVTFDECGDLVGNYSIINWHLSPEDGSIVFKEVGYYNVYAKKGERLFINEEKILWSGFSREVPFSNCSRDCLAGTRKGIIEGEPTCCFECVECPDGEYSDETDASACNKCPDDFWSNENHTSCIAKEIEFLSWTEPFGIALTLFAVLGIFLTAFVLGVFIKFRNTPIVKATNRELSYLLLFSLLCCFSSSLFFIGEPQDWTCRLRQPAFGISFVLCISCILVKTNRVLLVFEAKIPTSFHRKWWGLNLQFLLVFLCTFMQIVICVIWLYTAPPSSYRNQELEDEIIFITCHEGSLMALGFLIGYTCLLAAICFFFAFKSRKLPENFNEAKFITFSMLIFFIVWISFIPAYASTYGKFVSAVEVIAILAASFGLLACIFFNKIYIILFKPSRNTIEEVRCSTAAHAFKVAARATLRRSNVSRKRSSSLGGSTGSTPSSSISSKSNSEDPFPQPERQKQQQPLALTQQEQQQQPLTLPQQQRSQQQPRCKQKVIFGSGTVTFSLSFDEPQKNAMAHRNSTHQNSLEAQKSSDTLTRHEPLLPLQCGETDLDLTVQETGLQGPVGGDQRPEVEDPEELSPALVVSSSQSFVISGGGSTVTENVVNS
Experiment: Luciferase reporter assay in CHO cells (ET8-5-5) transfected with human Ca2+ receptor
Type: cell-based
Settings: CHO ET8-5-5 cells

How did the EC50 turn out when `CCOC(=O)CCCN(CCC(c1ccccc1)c1ccccc1)C(=O)Nc1nc2ccccc2s1` [Example 116, ethyl 4-(3-(benzo[d]thiazol-2-yl)-1-(3,3-diphenylpropyl)ureido)butanoate] was run?
Its EC50 is at most 10 µM.

For `COC(=O)c1ccccc1S(=O)(=O)NCCN(CCC(c1ccccc1)c1ccccc1)C(=O)Nc1nc2ccccc2s1` [Example 171, 2-{2-[3-Benzothiazol-2-yl-1-(3,3-diphenyl-propyl)-ureido]-ethylsulfamoyl}-benzoic acid methyl ester], which EC50 is on record?
Its EC50 is at most 10 µM.

How did the EC50 turn out when `O=C1CC[C@@H](NCCN(CCC(c2ccccc2)c2ccccc2)C(=O)Nc2nc3ccccc3s2)CN1` [Example 144, (R)-3-(benzo[d]thiazol-2-yl)-1-(3,3-diphenylpropyl)-1-(2-(6-oxopiperidin-3-ylamino)ethyl)urea] was run?
The EC50 was at most 10 µM.

Which EC50 does the source give for `O=C(Nc1nc2ccccc2s1)N(CCNC1CCSCC1)CCC(c1ccccc1)c1ccccc1` [Example 155, 3-Benzothiazol-2-yl-1-(3,3-diphenyl-propyl)-1-[2-(tetrahydro-thiopyran-4-ylamino)ethyl]-urea] here?
The EC50 was at most 10 µM.

For `O=C(NCCC(c1ccccc1)c1ccccc1)Nc1cccc2ccccc12` [Example 11, 1-(3,3-diphenyl-propyl)-3-naphthalen-1-yl-urea], which EC50 is on record?
Its EC50 is at most 10 µM.

For `O=C(CCCN(CCC(c1ccccc1)c1ccccc1)C(=O)Nc1nc2ccccc2s1)N1CCNCC1` [Example 82, 3-(benzo[d]thiazol-2-yl)-1-(3,3-diphenylpropyl)-1-(4-oxo-4-(piperazin-1-yl)butyl)urea], which EC50 is on record?
The EC50 was at most 10 µM.

With `COC(=O)c1cccc(NC(=O)N(CCC(c2ccccc2)c2ccccc2)CC(=O)OC(C)(C)C)c1` [Example 63, 3-[3-tert-butoxycarbonylmethyl-3-(3,3-diphenyl-propyl)-ureido]-benzoic acid methyl ester] as the molecule, how does the EC50 read?
The EC50 was at most 10 µM.

`COC(=O)c1cccc(NC(=O)NCCC2c3ccccc3-c3ccccc32)c1` [Example 7, 3-{3-[2-(9H-fluoren-9-yl)-ethyl]-ureido}-benzoic acid methyl ester] was tested. Which EC50 did it give?
The EC50 was at most 10 µM.

With `CCOC(=O)c1ccc(NC(=O)NCCC(c2ccccc2)c2ccccc2)cc1` [Example 9, 4-[3-(3,3-diphenyl-propyl)-ureido]-benzoic acid ethyl ester] as the molecule, how does the EC50 read?
The EC50 was at most 10 µM.

For `O=C(CCCN(CCC(c1ccccc1)c1ccccc1)C(=O)Nc1nc(-c2ccccc2)cs1)N[C@H]1CCCNC1` [Example 78, (S)-1-(3,3-diphenylpropyl)-1-(4-oxo-4-(piperidin-3-ylamino)butyl)-3-(4-phenylthiazol-2-yl)urea], which EC50 is on record?
The EC50 was at most 10 µM.

How did the EC50 turn out when `CN(CCN(CCC(c1ccccc1)c1ccccc1)C(=O)Nc1nc2ccccc2s1)C1CCCCC1` [Example 163, 3-Benzothiazol-2-yl-1-[2-(cyclohexyl-methyl-amino)-ethyl]-1-(3,3-diphenyl-propyl)-urea] was run?
Its EC50 is at most 10 µM.

Which EC50 does the source give for `NC(=O)CCN(CCC(c1ccccc1)c1ccccc1)C(=O)Nc1nc(-c2ccccc2)c(Cl)s1` [Example 110, 1-(3-amino-3-oxopropyl)-3-(5-chloro-4-phenylthiazol-2-yl)-1-(3,3-diphenylpropyl)urea] here?
The EC50 was at most 10 µM.

`CN1CCN(C(=O)CCCN(CCC(c2ccccc2)c2ccccc2)C(=O)Nc2nc3ccccc3s2)CC1` [Example 108, 3-(benzo[d]thiazol-2-yl)-1-(3,3-diphenylpropyl)-1-(4-(4-methylpiperazin-1-yl)-4-oxobutyl)urea] was tested. Which EC50 did it give?
Its EC50 is at most 10 µM.

With `O=C(NCCC(c1ccccc1)c1ccccc1)Nc1cccc(Cl)c1` [Example 14, 1-(3-chloro-phenyl)-3-(3,3-diphenyl-propyl)-urea] as the molecule, how does the EC50 read?
The EC50 was at most 10 µM.

For `COC(=O)c1ccc(Cl)c(NC(=O)NCCC(c2ccccc2)c2ccccc2)c1` [Example 37, 4-chloro-3-[3-(3,3-diphenyl-propyl)-ureido]-benzoic acid methyl ester], which EC50 is on record?
Its EC50 is at most 10 µM.

`CSCCN(CCC(c1ccccc1)c1ccccc1)C(=O)Nc1nc(-c2ccc(NS(C)(=O)=O)cc2)c(Cl)s1` [Example 137, 3-(5-chloro-4-(4-(methylsulfonamido)phenyl)thiazol-2-yl)-1-(3,3-diphenylpropyl)-1-(2-(methylthio)ethyl)urea] was tested. Which EC50 did it give?
The EC50 was at most 10 µM.

With `O=C(NCCC(c1ccccc1)c1ccccc1)Nc1ccccc1Cl` [Example 10, 1-(2-chloro-phenyl)-3-(3,3-diphenyl-propyl)-urea] as the molecule, how does the EC50 read?
The EC50 was at most 10 µM.

Which EC50 does the source give for `COc1ccc(CNC(=O)NCCC(c2ccccc2)c2ccccc2)cc1` [Example 16, 1-(3,3-diphenyl-propyl)-3-(4-methoxy-benzyl)-urea] here?
Its EC50 is at most 10 µM.

With `COC(=O)c1ccc(C)c(NC(=O)NCCC(c2ccccc2)c2ccccc2)c1` [Example 40, 3-[3-(3,3-diphenyl-propyl)-ureido]-4-methyl-benzoic acid methyl ester] as the molecule, how does the EC50 read?
The EC50 was at most 10 µM.

For `O=C(O)CCN(CCC(c1ccccc1)c1ccccc1)C(=O)Nc1nc(-c2ccccc2)cs1` [Example 126, 3-(1-(3,3-diphenylpropyl)-3-(4-phenylthiazol-2-yl)ureido)propanoic acid], which EC50 is on record?
The EC50 was at most 10 µM.

Which EC50 does the source give for `O=C(O)CCN(CCC(c1ccccc1)c1ccccc1)C(=O)Nc1nc(-c2ccccc2)c(Cl)s1` [Example 121, 3-(3-(5-chloro-4-phenylthiazol-2-yl)-1-(3,3-diphenylpropyl)ureido)propanoic acid] here?
The EC50 was at most 10 µM.

Which EC50 does the source give for `CCOC(=O)C1CC1CNCCN(CCC(c1ccccc1)c1ccccc1)C(=O)Nc1nc2ccccc2s1` (stereo not drawn) [Example 152, 2-({2-[3-Benzothiazol-2-yl-1-(3,3-diphenyl-propyl)-ureido]-ethylamino}-methyl)cyclopropanecarboxylic acid ethyl ester] here?
The EC50 was at most 10 µM.

For `NC(=O)CCN(CCC(c1ccccc1)c1ccccc1)C(=O)Nc1nc2ccccc2s1` [Example 109, 1-(3-amino-3-oxopropyl)-3-(benzo[d]thiazol-2-yl)-1-(3,3-diphenylpropyl)urea], which EC50 is on record?
The EC50 was at most 10 µM.

Which EC50 does the source give for `CN(C)C(=O)N1CCN(C(=O)CCCN(CCC(c2ccccc2)c2ccccc2)C(=O)Nc2nc3ccccc3s2)CC1` [Example 87, 3-(benzo[d]thiazol-2-yl)-1-(4-(4-(dimethylcarbamoyl)piperazin-1-yl)-4-oxobutyl)-1-(3,3-diphenylpropyl)urea] here?
The EC50 was at most 10 µM.

For `CC(C)(C)OC(=O)N1CCC(NCCN(CCC(c2ccccc2)c2ccccc2)C(=O)Nc2nc3ccccc3s2)CC1` [Example 159, 4-{2-[3-Benzothiazol-2-yl-1-(3,3-diphenyl-propyl)-ureido]-ethylamino}-piperidine-1-carboxylic acid tert-butyl ester], which EC50 is on record?
Its EC50 is at most 10 µM.

`O=C(NCCC(c1cccc(C(F)(F)F)c1)c1cccc(C(F)(F)F)c1)Nc1cccc(C(=O)O)c1` [Example 55, 3-{3-[3,3-Bis-(3-trifluoromethyl-phenyl)-propyl]-ureido}-benzoic acid] was tested. Which EC50 did it give?
Its EC50 is at most 10 µM.

Which EC50 does the source give for `O=C(NCCC(c1ccccc1)c1ccccc1)Nc1ccc(-c2ccccc2)cc1` [Example 2, 1-Biphenyl-4-yl-3-(3.3-diphenyl-propyl)-urea] here?
The EC50 was at most 10 µM.

Which EC50 does the source give for `COC(=O)c1ccc(OC)c(NC(=O)NCCC(c2ccccc2)c2ccccc2)c1` [Example 39, 3-[3-(3,3-diphenyl-propyl)-ureido]-4-methoxy-benzoic acid methyl ester] here?
Its EC50 is at most 10 µM.

`O=C(NCCC(c1ccccc1)c1ccccc1)Nc1cccc(CO)c1` [Example 57, 1-(3,3-diphenyl-propyl)-3-(3-hydroxymethyl-phenyl)-urea] was tested. Which EC50 did it give?
The EC50 was at most 10 µM.

For `CS(=O)(=O)Nc1ccc(-c2nc(NC(=O)N(CCNC(=O)C3CCCNC3)CCC(c3ccccc3)c3ccccc3)sc2Cl)cc1` (stereo not drawn) [Example 131, 3-(5-chloro-4-(4-(methylsulfonamido)phenyl)thiazol-2-yl)-1-(3,3-diphenylpropyl)-1-(2-(piperidine-3-carboxamido)ethyl)urea], which EC50 is on record?
The EC50 was at most 10 µM.

How did the EC50 turn out when `COc1ccc(NC(=S)NCCC(c2ccccc2)c2ccccc2)cc1` [Example 45, 1-(3,3-diphenyl-propyl)-3-(4-methoxy-phenyl)-thiourea] was run?
Its EC50 is at most 10 µM.

How did the EC50 turn out when `O=C(CCN(CCC(c1ccccc1)c1ccccc1)C(=O)Nc1nc2ccccc2s1)N1CCNCC1` [Example 106, 3-(benzo[d]thiazol-2-yl)-1-(3,3-diphenylpropyl)-1-(3-oxo-3-(piperazin-1-yl)propyl)urea] was run?
The EC50 was at most 10 µM.

How did the EC50 turn out when `O=C(NCCN(CCC(c1ccccc1)c1ccccc1)C(=O)Nc1nc2ccccc2s1)C1CCCNC1` (stereo not drawn) [Example 129, 3-(benzo[d]thiazol-2-yl)-1-(3,3-diphenylpropyl)-1-(2-(piperidine-3-carboxamido)ethyl)urea] was run?
The EC50 was at most 10 µM.
